Data: PubChem BioAssay AID540256 (National Center for Advancing Translational Sciences (NCATS), 2011)
The campaign covered roughly 300,000 compounds. About 3,700 (1.2%) were called active. This list was built around the results that the source calls inconclusive (neither active nor inactive); the mix of calls is not that of the screen. The call rests on the fitted dose curve; tested in HEK293 cells. Where the call is inconclusive, the potency comes from a doubtful curve fit.

test: qHTS for Inhibitors of binding or entry into cells for Lassa Virus; conditions: Lassa virus pseudotype entry inhibition, cell reporter; activity change, negative = inhibition: at 37.9 µM (top of the series) unless noted; further: nearly all actives have a fitted effect of over 50% in size
On the % scale 0 is the no-effect control and ±100 the full control effect; potency means the concentration at half of the fitted maximal effect.

Structure (SMILES)	Potency	activity change, negative = inhibition
O=C(O)CCCCCN1C(=O)CSC1=S	inconclusive: 0.562 µM [inhibitor, partial curve, poor fit]	–
c1ccc(COc2ccc(Oc3nc(N4CCCCC4)nc(N4CCOCC4)n3)nn2)cc1	active: 5.8 µM	–
CC(C)(C)c1ccc(-c2nnc(SCCC#N)n2C2CCCC2)cc1	inconclusive: 10 µM [inhibitor, partial curve, poor fit]	–
COc1ccccc1-c1cc(C(=O)N/N=C/c2ccc(C)o2)c2ccccc2n1	inconclusive: 15.8 µM [inhibitor, single point]	–
C/C(=N\NC(=O)c1ccc(Cl)cc1)c1cccnc1	inconclusive: 3.98 µM [activator, partial curve, poor fit]	–
Cc1ccc(-c2ccc(/C=N\NC(=O)c3cc4c(ccc5ccccc54)o3)o2)cc1[N+](=O)[O-]	inconclusive: 28.2 µM [inhibitor, single point]	–
COc1ccc(-c2nc(CN3CCCCC3CCc3ccccn3)c(C)o2)cc1 (stereo not drawn)	inconclusive: 35.5 µM [inhibitor, partial curve, poor fit]	–
O=C(CSCc1cnn(-c2ccccc2)c1-n1cccc1)Nc1ccc(F)cc1F	–	inactive: 15.8% [at 46.1 µM]
O=C(/C(=C(\[O-])c1ccccc1)[n+]1ccc2ccccc2c1)c1ccc(Cl)cc1	inconclusive: 20 µM [activator, single point]	–
CCCCCn1c(=N)n(CC(O)COc2cccc(C)c2)c2ccccc21 (stereo not drawn)	inconclusive: 35.5 µM [inhibitor, single point]	–
COC(=O)c1ccc(OCC2c3cc(OC)c(OC)cc3CCN2C(=O)c2ccccc2F)cc1 (stereo not drawn)	inconclusive: 6.31 µM [inhibitor, full curve, poor fit]	–
Cc1ccc(C)c(Cn2nc(C)n3c(cc4cc(C)ccc43)c2=O)c1	inconclusive: 14.1 µM [activator, single point]	–
CCN(CC)S(=O)(=O)c1ccc2oc(C(=O)NCCN3CCOCC3)c(C)c2c1	inconclusive: 0.891 µM [activator, single point]	–
O=C1Nc2c(c(=O)[nH]c(=O)n2-c2ccccc2F)C(C(F)(F)F)(C(F)(F)F)N1	inconclusive: 25.9 µM [activator, partial curve, poor fit]	–
NS(=O)(=O)c1ccc(CCNC(=O)c2ccc(Br)s2)cc1	inconclusive: 1.58 µM [inhibitor, full curve, poor fit]	–
O=C(Nc1cccc(NC(=O)c2ccco2)c1)c1ccc2c(c1)OCO2	–	inactive: 3%
CC1CC(C)CN(C(=O)c2cc3c(=O)n4ccccc4nc3s2)C1 (stereo not drawn)	inconclusive: 2.82 µM [activator, partial curve]	–
Cc1nn(C)c(C)c1Nc1ccc(N2C(=O)C3CC=CCC3C2=O)cc1[N+](=O)[O-] (stereo not drawn)	–	inactive: -28.5% [at 46.1 µM]
S=C(NCc1cccs1)Nc1cccc(Cl)c1Cl	inconclusive: 0.708 µM [inhibitor, single point]	–
CCOc1ccc(OCCC(=O)N2CCN(S(=O)(=O)c3ccc(OCC)cc3)CC2)cc1	inconclusive: 0.0891 µM [activator, full curve, poor fit]	–
COc1ccc(NC(=O)CSc2nc(-c3ccccc3)nc3c2Cc2c(CO)cnc(C)c2O3)cc1Cl	–	inactive: -6.28% [at 46.1 µM]
O=C(NCCc1nc2ccccc2[nH]1)c1cccc(Br)c1	–	inactive: 2.45%
Cc1ccc(N2CCN(C(=O)c3noc4c3COc3ccc(C)cc3-4)CC2)c(C)c1	–	inactive: 29.9% [at 46.1 µM]

One compound at a time, from the list above. Values in the order: Potency	activity change, negative = inhibition
CCOc1ccc(OCCC(=O)N2CCN(S(=O)(=O)c3ccc(OCC)cc3)CC2)cc1 reads inconclusive: 0.0891 µM [activator, full curve, poor fit]	–
CCCCCn1c(=N)n(CC(O)COc2cccc(C)c2)c2ccccc21 (stereo not drawn) reads inconclusive: 35.5 µM [inhibitor, single point]	–
CC(C)(C)c1ccc(-c2nnc(SCCC#N)n2C2CCCC2)cc1 reads inconclusive: 10 µM [inhibitor, partial curve, poor fit]	–

Next results:

Structure (SMILES)	Potency	activity change, negative = inhibition
O=C(Nc1nc2ccccc2n1CCN1CCOCC1)c1ccc(Cl)cc1	inconclusive: 15.8 µM [activator, partial curve, poor fit]	–
CCOC(=O)C(=O)Nc1cc(Cl)ccc1C	inconclusive: 29.1 µM [inhibitor, single point]	–
NC(N)=NCCCCN=C(N)N	–	inactive: -1.36%
COc1ccccc1C1C=C(c2ccc(Cl)cc2)Nc2nc(-c3ccc(Cl)cc3)nn21 (stereo not drawn)	inconclusive: 3.55 µM [inhibitor, single point]	–
Cc1[nH]c(=S)c(C#N)c2c1CCCC2	inconclusive: 3.16 µM [inhibitor, partial curve, poor fit]	–
O=C(NC1CCCCC1)c1ccc(-c2ccc(Cl)cc2)o1	inconclusive: 3.98 µM [activator, partial curve, poor fit]	–
COc1cccc(NC(=O)c2nc3ncccn3n2)c1	–	inactive: 14.7%
CC1CCCN(CC(O)COC(c2ccccc2)c2ccccc2)C1 (stereo not drawn)	inconclusive: 11.2 µM [inhibitor, partial curve, poor fit]	–
c1ccc(-c2csc(CN3CCCCC3)n2)cc1	inconclusive: 35.5 µM [inhibitor, single point]	–
COc1ccc(OCC(=O)NCCS(=O)(=O)N2CCN(c3cccc(Cl)c3)CC2)cc1	–	inactive: -25.3% [at 46.1 µM]
O=C(CCn1nc(-c2ccc(Cl)cc2)c2ccccc2c1=O)NCCN1CCOCC1	inconclusive: 29.1 µM [activator, partial curve, poor fit]	–
CCCN(CCC)CC(O)Cn1cc(/C=C/C(=O)c2ccc(OCC)cc2)c2ccccc21 (stereo not drawn)	inconclusive: 35.5 µM [inhibitor, single point]	–
N#Cc1ccc(OCC(=O)NC2=NCCS2)cc1	–	inactive: -16.6%
C(=N/n1c2ccccc2c2ccccc21)/c1ccco1	–	inactive: -1.65%
CCN(CC)CCOC(c1ccccc1)c1ccc(C)cc1 (stereo not drawn)	inconclusive: 14.1 µM [inhibitor, partial curve]	–
Nn1c(-c2ccccc2Cl)nnc1-c1ccccc1Cl	–	inactive: 9.09%
Cc1cccc(C)c1NC1=NCCCCS1	–	inactive: -3.9%
Cc1noc(C)c1C(=O)NCc1cccs1	–	inactive: -1.74%
COc1ccc(CC(=O)Nc2ccc(-c3cn4ccccc4n3)cc2)cc1	inconclusive: 3.98 µM [activator, partial curve, poor fit]	–
Cc1ccc(S(=O)(=O)CCC(=O)Nc2nnc(-c3cccs3)o2)cc1	inconclusive: 0.562 µM [activator, single point]	–
O=C(N/N=C/c1cc2c(cc1Cl)OCO2)c1ccncc1	inconclusive: 0.461 µM [inhibitor, full curve, poor fit]	–
CC(C)c1nn2c(=O)cc(COC(=O)CNC(=O)c3ccccc3)nc2s1	–	inactive: 24.1% [at 46.1 µM]
CC1CC(C)CN(C(=O)C2CCN(S(=O)(=O)c3cccs3)CC2)C1 (stereo not drawn)	–	inactive: -12.5%

Structure (SMILES)	Potency	activity change, negative = inhibition
Cc1ccc(-c2csc3ncnc(N4CCN(S(=O)(=O)c5cccs5)CC4)c23)cc1	inconclusive: 35.5 µM [inhibitor, single point]	–
CCc1ccc(NC(=O)C(=O)NCC(c2cccnc2)N2CCOCC2)cc1 (stereo not drawn)	inconclusive: 14.1 µM [inhibitor, partial curve, poor fit]	–
COc1cccc2c1NC(C(=O)O)C1CC=CC21 (stereo not drawn)	inconclusive: 23.1 µM [inhibitor, partial curve, poor fit]	–
O=C(NCc1ccccc1)NC1CCCCC1	inconclusive: 29.1 µM [inhibitor, single point]	–
Cc1c(C(=O)NC(C)c2ccc(-n3ccnc3)cc2)cccc1[N+](=O)[O-] (stereo not drawn)	inconclusive: 4.47 µM [inhibitor, partial curve, poor fit]	–
CSc1nc(N)n2nc(-c3ccc(Cl)cc3)cc2n1	inconclusive: 25.1 µM [inhibitor, single point]	–
CC(=O)c1ccc(NC(=O)c2ccn[nH]2)cc1	inconclusive: 13 µM [inhibitor, single point]	–
COc1ccc(Br)cc1CN(C)C(=O)Cc1ccc(S(=O)(=O)N2CCOCC2)s1	inconclusive: 1 µM [activator, single point]	–
CN(c1ccccc1)S(=O)(=O)c1cccc(C(=O)N2CCCCCC2)c1	inconclusive: 10 µM [inhibitor, partial curve, poor fit]	–
Cc1ccc(-c2cc(-c3ccccc3)nc(NN)n2)cc1	–	inactive: -24.3% [at 46.1 µM]
COc1ccc(CNC(=O)[C@H](Cc2ccccc2)NC(=O)C2CCNCC2)cc1	inconclusive: 7.08 µM [inhibitor, partial curve, poor fit]	–
COc1ccc(CCC(=O)NNC(=O)Nc2cc(Cl)ccc2C)cc1	inconclusive: 0.794 µM [inhibitor, partial curve, poor fit]	–
O=C(CSc1nc(O)c(C2CCCCC2)c(=O)[nH]1)NCC1CCCO1 (stereo not drawn)	–	inactive: 1.1%
O=C(NNc1nc(-c2ccccc2)cs1)c1cccs1	inconclusive: 35.5 µM [inhibitor, single point]	–
COc1ccc(C(O)c2nccn2C)cc1 (stereo not drawn)	–	inactive: 1.41%
CC(=O)Nc1ccc(S(=O)(=O)NCCC(=O)OCc2nnc(-c3ccccc3)o2)cc1	inconclusive: 6.31 µM [activator, single point]	–
O=C1N(Cc2cccnc2)C[C@@H]2C[C@@H](c3ccc(-c4ccccc4)cc3)N3CCC[C@@]123	inconclusive: 0.562 µM [inhibitor, full curve, poor fit]	–
N/C(CC(=O)NCCOc1ccccc1)=N\O	inconclusive: 8.2 µM [inhibitor, partial curve, poor fit]	–
Cc1ccc(N(Cc2ccco2)C(=O)c2ccc(N3CCCCC3)c([N+](=O)[O-])c2)cc1	inconclusive: 20.6 µM [inhibitor, partial curve, poor fit]	–
CCOC(=O)c1sc2nc3c(SCC(=O)O)cc(C(=O)c4cc(F)ccc4O)cn3c(=O)c2c1C	inconclusive: 0.259 µM [inhibitor, partial curve, poor fit]	–
COCCCNc1oc(/C=C/c2ccccc2)nc1C#N	inconclusive: 22.4 µM [inhibitor, single point]	–
O=C(COC(=O)c1ccccc1C(F)(F)F)NC(=O)NCc1ccco1	inconclusive: 35.5 µM [inhibitor, single point]	–
